In patent US20180010140A1 (WASHINGTON STATE UNIVERSITY, published 2018) one finds binding data, which are given here for two molecules.

Chains of the proteins cited; added tags and fusions are not shown.
UniProt Q6X5Y6: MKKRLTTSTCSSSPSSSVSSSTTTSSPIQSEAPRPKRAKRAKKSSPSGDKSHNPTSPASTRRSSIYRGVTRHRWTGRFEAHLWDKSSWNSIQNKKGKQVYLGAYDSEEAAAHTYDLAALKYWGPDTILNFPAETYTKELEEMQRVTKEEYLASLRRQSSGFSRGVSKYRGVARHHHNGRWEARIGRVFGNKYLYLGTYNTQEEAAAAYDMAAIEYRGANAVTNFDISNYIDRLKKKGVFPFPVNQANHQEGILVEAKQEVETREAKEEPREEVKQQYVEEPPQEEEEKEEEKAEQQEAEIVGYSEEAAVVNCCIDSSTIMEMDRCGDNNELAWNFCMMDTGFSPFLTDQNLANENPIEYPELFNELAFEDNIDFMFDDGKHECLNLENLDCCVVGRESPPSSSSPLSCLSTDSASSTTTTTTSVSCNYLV

These are yes or no findings as the source states them, for the method shown. In cells and extracts the contact can be indirect. Some entries that bind do so weakly or less than the wild type. For some assays here: Where a sequence is shown, tags or fusion partners need not be part of it.

The target in assay [1] is endogenous WRI1 in Arabidopsis plant extract (Arabidopsis thaliana) (UniProt Q6X5Y6). Put plainly: GST pull-down from WT plant extract.
In assay [2] the target is T1, in vitro translated, [35S]-methionine labeled BPM1 (Arabidopsis thaliana) (UniProt Q8L765).
T1 sequence ([35S]-methionine labeled (printed '[^355]-methionine labeled'), looked up): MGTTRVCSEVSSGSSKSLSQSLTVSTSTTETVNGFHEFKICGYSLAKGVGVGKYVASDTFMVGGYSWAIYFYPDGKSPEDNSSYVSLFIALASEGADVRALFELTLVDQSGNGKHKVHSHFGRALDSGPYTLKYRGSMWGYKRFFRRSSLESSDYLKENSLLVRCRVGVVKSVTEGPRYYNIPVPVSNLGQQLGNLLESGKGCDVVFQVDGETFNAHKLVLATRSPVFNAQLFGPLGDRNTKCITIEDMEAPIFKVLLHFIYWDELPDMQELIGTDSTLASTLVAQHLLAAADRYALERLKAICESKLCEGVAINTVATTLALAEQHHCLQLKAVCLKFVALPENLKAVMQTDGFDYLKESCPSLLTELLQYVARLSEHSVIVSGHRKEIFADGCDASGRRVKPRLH
Put plainly: GST pull-down of in vitro translated, radiolabeled BPM1.

The target of assay [3] is endogenous WRI1 in Arabidopsis plant extract (Arabidopsis thaliana) (UniProt Q6X5Y6). Put plainly: GST pull-down from plant extract, Western blot with α-WRI1. Background: In western blotting, separated proteins are transferred to a membrane and probed.
In assay [4] the target is T2, GST:CUL3a (Arabidopsis thaliana) (UniProt Q9ZVH4).
T2 sequence (looked up): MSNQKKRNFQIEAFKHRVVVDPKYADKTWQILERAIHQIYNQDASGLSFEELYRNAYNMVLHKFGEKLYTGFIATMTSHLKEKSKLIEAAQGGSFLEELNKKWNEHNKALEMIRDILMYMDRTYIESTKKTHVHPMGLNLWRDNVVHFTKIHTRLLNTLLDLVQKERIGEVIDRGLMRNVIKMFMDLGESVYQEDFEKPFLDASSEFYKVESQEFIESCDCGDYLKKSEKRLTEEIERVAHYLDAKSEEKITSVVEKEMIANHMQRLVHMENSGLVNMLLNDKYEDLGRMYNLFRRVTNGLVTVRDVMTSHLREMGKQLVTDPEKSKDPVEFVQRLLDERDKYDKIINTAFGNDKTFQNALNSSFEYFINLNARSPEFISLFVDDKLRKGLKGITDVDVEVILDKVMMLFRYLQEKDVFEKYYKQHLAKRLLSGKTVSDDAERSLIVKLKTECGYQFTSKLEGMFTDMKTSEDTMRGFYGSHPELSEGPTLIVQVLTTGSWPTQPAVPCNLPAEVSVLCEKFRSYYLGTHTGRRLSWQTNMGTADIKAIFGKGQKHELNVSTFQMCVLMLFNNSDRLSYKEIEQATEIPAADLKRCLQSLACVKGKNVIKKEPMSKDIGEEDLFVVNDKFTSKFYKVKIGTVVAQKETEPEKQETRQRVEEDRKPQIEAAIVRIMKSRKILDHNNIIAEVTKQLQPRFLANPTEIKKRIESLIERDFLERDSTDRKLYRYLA
Put plainly: pull-down with purified E. coli proteins (His:WRI1 on nickel resin, GST:BPM1 and GST:CUL3a added).

For assay [5], the target named is His:WRI1 (Arabidopsis thaliana) (UniProt Q6X5Y6). Described as above.

Turning to GST:WRI1 (from UniProt Q6X5Y6 1-430), the binding entry in assay [1], in assay [2] and in assay [3] was “binds” each time.

B1: GST:BPM1 (protein, Arabidopsis thaliana, UniProt Q8L765 1-407, looked up, not shown: a dimerising Fc or GST)
chain: MGTTRVCSEVSSGSSKSLSQSLTVSTSTTETVNGFHEFKICGYSLAKGVGVGKYVASDTFMVGGYSWAIYFYPDGKSPEDNSSYVSLFIALASEGADVRALFELTLVDQSGNGKHKVHSHFGRALDSGPYTLKYRGSMWGYKRFFRRSSLESSDYLKENSLLVRCRVGVVKSVTEGPRYYNIPVPVSNLGQQLGNLLESGKGCDVVFQVDGETFNAHKLVLATRSPVFNAQLFGPLGDRNTKCITIEDMEAPIFKVLLHFIYWDELPDMQELIGTDSTLASTLVAQHLLAAADRYALERLKAICESKLCEGVAINTVATTLALAEQHHCLQLKAVCLKFVALPENLKAVMQTDGFDYLKESCPSLLTELLQYVARLSEHSVIVSGHRKEIFADGCDASGRRVKPRLH
On to B1, for which the binding result in assay [4] and in assay [5] was “binds” each time.
